Drawing on paper PMC7819943, “Rice protein-binding microarrays: a tool to detect cis-acting elements near promoter regions in rice”, this text covers binding signal for 42 sequences.

Sequences of proteins named here, by UniProt entry; tags and fusion partners are left off.
UniProt Q0JBA9, entry or part of it: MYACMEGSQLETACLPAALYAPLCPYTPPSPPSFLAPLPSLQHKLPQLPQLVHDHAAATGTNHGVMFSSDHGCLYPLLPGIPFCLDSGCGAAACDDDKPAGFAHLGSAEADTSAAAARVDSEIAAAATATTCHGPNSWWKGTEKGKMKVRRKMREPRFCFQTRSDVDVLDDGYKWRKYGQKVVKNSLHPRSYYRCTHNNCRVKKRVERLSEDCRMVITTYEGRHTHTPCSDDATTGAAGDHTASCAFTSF

The list shows a part of the results.

This assay concerns the target OsWRKY34 (Oryza sativa, UniProt Q0JBA9 1-250). Description: protein-binding microarray (RPBM); PBS, 2% BSA, 51.3 ng/ul salmon testes DNA, 50 uM zinc acetate, 200 nM TF, 25 C, 1 h; high values mean tight binding. Conditions: protein: recombinant; tags: N-terminal polyhistidine and DsRed monomer fusion (pET32a); label: CyDye5-dUTP incorporated in the synthesized complementary strand; 3' TTTTT single-stranded linker to array surface; dsDNA, one strand shown. In a few lines:
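Per-feature fluorescence intensity (arbitrary units), read on an Axon 4000B scanner, is the binding signal. Transcription factors carrying an N-terminal polyhistidine tag and DsRed fusion were expressed in E. coli BL21-CodonPlus and purified on Ni–NTA. A custom Agilent array, made double-stranded by primer extension with Cy5-dUTP and blocked with 2% BSA, was incubated with 200 nM protein in PBS, 2% BSA, salmon testes DNA and 50 µM zinc acetate at 25 °C for 1 h and then washed.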
In the case of “TATTAGGTATCCTGTCCTTTGCTTATGATAGAATACTGACCGGAGTCACCTAGTGCAG”, the binding signal is 8350 fluorescence intensity (a.u.).
The result for “GCAATTGTGCGGACCACCCAACTAGTTTCTATTTTATACCCGGAGTCACCTAGTGCAG” reads 8120 fluorescence intensity (a.u.); that for “TCAAATAGGCCGTTGACAAATTTGCTGTCGATTTCACCTTCGGAGTCACCTAGTGCAG”, 10300 fluorescence intensity (a.u.).
Turning to “CCGGCAACTATAGTGCTTTTCCCGCCCACTCACCCGCCCACGGAGTCACCTAGTGCAG”, the binding signal is 8510 fluorescence intensity (a.u.).
Under “CTTAATTATCGTACCAAGGCTGTTTATTTGTTTTCTAAATCGGAGTCACCTAGTGCAG” stands 9390 fluorescence intensity (a.u.); under “TGACACCATTGAACGTACTTTATCTTTCTGTCCACACATGCGGAGTCACCTAGTGCAG”, 8660 fluorescence intensity (a.u.).
The result for “TTATGCCTACCGTCCCGCGCGCTCTACCCTGCCAGCACAACGGAGTCACCTAGTGCAG” reads 9610 fluorescence intensity (a.u.); that for “AGATGACGCCGTTGACTTTTTCTTACATATTTGACCATTCCGGAGTCACCTAGTGCAG”, 25400 fluorescence intensity (a.u.); that for “TCTCTCGTTCGGCCCATTTCCCCTGCAAAGTTCATATGTTCGGAGTCACCTAGTGCAG”, 9200 fluorescence intensity (a.u.).
Under “GTCTGAACCACAGTTTTTTTTCAACTGAAAACACATGTAACGGAGTCACCTAGTGCAG” stands 8360 fluorescence intensity (a.u.); under “AGTTCGTCCATCTAGCCTGACTTCATACTTGCTTCACCTGCGGAGTCACCTAGTGCAG”, 8390 fluorescence intensity (a.u.); under “TATATATATATATATATATATATCTTGAAAACGTGATGTGCGGAGTCACCTAGTGCAG”, 9040 fluorescence intensity (a.u.).
For the sequence “TCGAAGTACTCAGATTCTACCATGTCGCATTATCTCATCCCGGAGTCACCTAGTGCAG”, the binding signal was 9640 fluorescence intensity (a.u.).
For the sequence “GCTATGCTACTCCTTTTCCTTAGACTTTTGATTTCCTTTTCGGAGTCACCTAGTGCAG”, the binding signal is 8840 fluorescence intensity (a.u.).
The result for “CATGTTAATTTTCTACTACAGCTTAGGTTGATGCTATGTTCGGAGTCACCTAGTGCAG” reads 8270 fluorescence intensity (a.u.); that for “GTGGATGTACATAGTTTATGGCCAATTGGACATCCGTGTCCGGAGTCACCTAGTGCAG”, 8240 fluorescence intensity (a.u.).
Take “TCGGATATAGCTTTTCTTTATTTTTCTTTCATCCCTTTTTCGGAGTCACCTAGTGCAG”: the binding signal is 10700 fluorescence intensity (a.u.).
In the case of “AGTAGTAGTGTATTTCGCTTCGCCTCCAAGTTCCAACCATCGGAGTCACCTAGTGCAG”, the binding signal was 9790 fluorescence intensity (a.u.).
Under “CTACGTCGCCCGTGTCTCGTGCACTTCCTCTCTCGCTGACCGGAGTCACCTAGTGCAG” stands 10300 fluorescence intensity (a.u.).
The result for “GTAGCGTTGCTTTCTTCATTTCTTCACCTGATATTCCCGTCGGAGTCACCTAGTGCAG” reads 8940 fluorescence intensity (a.u.).
For the sequence “TTCTGTGTTCTTCTATATTTTGAGCTTACTTCATGTTTGTCGGAGTCACCTAGTGCAG”, the binding signal is 8260 fluorescence intensity (a.u.).
Under “TTGGTCAGGGTCAACGTTGGTTGCTACTACTACTTGCTACCGGAGTCACCTAGTGCAG” stands 8190 fluorescence intensity (a.u.); under “CTGGATTGATTGGGAGTGTTGGGTTTCGGGCTAGATCTGGCGGAGTCACCTAGTGCAG”, 9850 fluorescence intensity (a.u.); under “TTTTTTACCCCGTTTCATCCTCTGATCGATCTTTACCGCTCGGAGTCACCTAGTGCAG”, 9470 fluorescence intensity (a.u.).
Under “TGCGCAGTAGTACACCACCATCACCACCACCAATGCATGCCGGAGTCACCTAGTGCAG” stands 8060 fluorescence intensity (a.u.); under “CGCTACCTTGACCCGTACGAAATTTCCTGGGCGAGACTGACGGAGTCACCTAGTGCAG”, 9970 fluorescence intensity (a.u.); under “ACTACGTACTGTACCTTCTTCTTCTTCTTTTTTTTTACAACGGAGTCACCTAGTGCAG”, 12200 fluorescence intensity (a.u.).
On to “GCCAACTTCCATTTTACAACCTCCCAGTACTCTTCCATTACGGAGTCACCTAGTGCAG”, for which the binding signal is 8280 fluorescence intensity (a.u.).
Regarding “TCTAAGCTTTCATACCTTACTTCGAACTTTTCTATTGCAACGGAGTCACCTAGTGCAG”, the binding signal is 12800 fluorescence intensity (a.u.).
Regarding “ATCCAATCCGCGCCCCAGCTCGTGAACTTCGCCGGCGCGCCGGAGTCACCTAGTGCAG”, the binding signal is 8280 fluorescence intensity (a.u.).
Under “TCAAGGCCCAATTGTCAGCAGTACGGTCTCCACTATACATCGGAGTCACCTAGTGCAG” stands 9360 fluorescence intensity (a.u.); under “TCGGCTCCGCGCCTCTTCGACCTCGTGGGTGGGTGTGCGGCGGAGTCACCTAGTGCAG”, 8170 fluorescence intensity (a.u.).
Turning to “TGCCGCCGTCTGCGAAAATTGCATTTAGCCCCTTGCCGTCCGGAGTCACCTAGTGCAG”, the binding signal is 10000 fluorescence intensity (a.u.).
The result for “TTTGCTCTGTTTGTTGCGCGATTTCTTCAGAACCTGCAGGCGGAGTCACCTAGTGCAG” reads 9240 fluorescence intensity (a.u.); that for “TATTCCTCCGTTTTTCCATTCCTGCGATTCAAAGGGGCCCCGGAGTCACCTAGTGCAG”, 8460 fluorescence intensity (a.u.).
On to “GCTCCACATATTTACGTTGCACACCTGCGCTCGCATACAACGGAGTCACCTAGTGCAG”, for which the binding signal is 9440 fluorescence intensity (a.u.).
The result for “CAAATCAATCCGTTTCATGCATCATCATCCTCCTGTCGATCGGAGTCACCTAGTGCAG” reads 9320 fluorescence intensity (a.u.); that for “GCTGGCTTTGTCCCCTTCATTTCTGTTCCATTTCCCATTCCGGAGTCACCTAGTGCAG”, 11400 fluorescence intensity (a.u.).
Under “ATTAATTCGTTTATATTATCTTTTTCACGGCTTATTAATGCGGAGTCACCTAGTGCAG” stands 8270 fluorescence intensity (a.u.); under “ATCTCTCTGCCCAATCCGCCATCCCCATCCATCAGGCTAACGGAGTCACCTAGTGCAG”, 9170 fluorescence intensity (a.u.).
In the case of “ATTGCTTTTTACCTATCCATCGGCAATGGCGTTCTTCGAGCGGAGTCACCTAGTGCAG”, the binding signal is 9550 fluorescence intensity (a.u.).
On to “ATCCTCATCCTCTCTCTCCATCTCTCACCTCCTCATCCTTCGGAGTCACCTAGTGCAG”, for which the binding signal was 8610 fluorescence intensity (a.u.).
